PubChem BioAssay AID686938 – Drosophila RNAi Screening Center, 2013

Test: 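Knock-downs reducing store-operated calcium influx in Drosophila cells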 (primary screen)
System: Drosophila S2R+ cells
Knock-down reagent: long dsRNA against Drosophila genes, about 0.25 µg dsRNA per well, roughly 10,000 cells
Timing: 5 days of knock-down before the calcium assay
Treatment: thapsigargin (SERCA pump blocker) to empty calcium stores; entry signal taken 4 min after adding it
Detection: 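Per-well fluo-4 fluorescence in two replicates, unnormalised, measured in resting cells and 4 min after store depletion by the SERCA blocker thapsigargin; ratio of the two present in few wells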
Direction: calcium entry signal: higher = stronger calcium signal after store depletion; entry to resting ratio: higher = more calcium entry relative to resting level; resting calcium signal: higher = higher resting calcium signal
Active means: 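Hit if the duplicate-averaged plate z-score for entry over resting signal is under −3; wells with weak total dye signal (Fmax z < −2) or more than 5 off-targets removed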
Calls: active = strongly reduced calcium entry; inactive = no strong reduction
The deposit covers about 23,000 reagents; this is an unselected part of those with a known target gene and a result. Of all reagents, 75 (0.33%) are marked active. 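Raw plate signals without normalisation; calls rest on plate z-scores that were not deposited; ratio present for only 364 wells.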 Unmarked entries are inactive. Names joined by + are all predicted targets of the reagent. Not given: the dose of the treatment.

| predicted target | DRSC id | calcium entry signal, replicate 1 (fluorescence units) | calcium entry signal, replicate 2 (fluorescence units) | entry to resting ratio | resting calcium signal, replicate 1 (fluorescence units) | resting calcium signal, replicate 2 (fluorescence units) |
| --- | --- | --- | --- | --- | --- | --- |
| CG31178 | DRSC14590 | 3.98e7 | 4.80e7 | – | 4.60e7 | 2.07e7 |
| CG18258 | DRSC19798 | 4.61e7 | 3.34e7 | – | 2.34e7 | 1.60e7 |
| CG30403 | DRSC03889 | 3.81e7 | 6.10e7 | – | 1.71e7 | 2.94e7 |
| MYPT-75D | DRSC10743 | 3.99e7 | 4.81e7 | – | 1.86e7 | 3.28e7 |
| TwdlD | DRSC14738 | 2.84e7 | 3.90e7 | – | 1.41e7 | 1.75e7 |
| Recs1 | DRSC16545 | 2.01e7 | 4.18e7 | – | 9.93e6 | 5.38e7 |
| Ugt35C1 | DRSC16080 | 3.35e7 | 4.55e7 | – | 1.57e7 | 2.05e7 |
| Plap | DRSC00678 | 3.87e7 | – | – | 2.43e7 | – |
| eater | DRSC15969 | 4.00e7 | 6.07e7 | – | 1.94e7 | 3.21e7 |
| eater | DRSC22254 | 2.16e7 | 3.33e7 | – | 1.15e7 | 1.57e7 |
| CG5541 | DRSC19946 | 3.35e7 | 4.04e7 | – | 1.58e7 | 1.91e7 |
| mRpS31 | DRSC10556 | 3.99e7 | 4.74e7 | – | 1.68e7 | 3.05e7 |
| CG11600 | DRSC14332 | 3.21e7 | 3.58e7 | – | 1.64e7 | 1.78e7 |
| eEFSec | DRSC04571 | 4.71e7 | 5.11e7 | – | 2.38e7 | 2.20e7 |
| CG4041 | DRSC18339 | 3.47e7 | 4.28e7 | – | 1.80e7 | 2.18e7 |
| CG11590 | DRSC19411 | 2.91e7 | 3.88e7 | – | 1.47e7 | 1.80e7 |
| CG4456 + Hsp22 | DRSC11187 | 2.45e7 | 3.41e7 | – | 1.37e7 | 1.48e7 |
| CG4456 + Hsp22 | DRSC11192 | 5.33e7 | 4.72e7 | – | 3.38e7 | 1.94e7 |
| Vha36-1 | DRSC07098 | 2.72e7 | 2.87e7 | – | 1.48e7 | 1.60e7 |
| CG13043 | DRSC09924 | 4.56e7 | 5.84e7 | – | 2.06e7 | 2.57e7 |
| prg | DRSC03324 | 4.50e7 | 6.28e7 | – | 2.02e7 | 2.60e7 |
| CG9981 | DRSC20225 | 2.23e7 | 2.41e7 | – | 1.20e7 | 1.17e7 |
| c-cup | DRSC00458 | 3.43e7 | 3.47e7 | – | 1.65e7 | 1.57e7 |
| CG13449 | DRSC09996 | 4.67e7 | 6.19e7 | – | 2.27e7 | 2.60e7 |
| Jheh1 | DRSC06529 | 2.40e7 | 2.20e7 | – | 1.16e7 | 1.07e7 |
| Shal | DRSC09625 | 3.83e7 | 4.10e7 | – | 1.97e7 | 1.91e7 |
| Shal | DRSC11283 | 2.92e7 | 5.63e7 | – | 1.42e7 | 2.24e7 |
| CG1324 | DRSC20496 | 4.34e7 | 4.29e7 | – | 1.87e7 | 1.94e7 |
| dpr19 | DRSC02237 | 3.53e7 | 4.91e7 | – | 1.68e7 | 2.01e7 |
| Pde9 | DRSC19746 | 2.77e7 | 4.02e7 | – | 1.40e7 | 1.85e7 |
| Pde9 | DRSC19874 | 4.44e7 | 5.06e7 | – | 2.11e7 | 2.38e7 |
| Pde9 | DRSC19875 | 4.11e7 | 5.32e7 | – | 2.01e7 | 2.33e7 |
| Pde9 | DRSC19876 | 3.99e7 | 3.86e7 | – | 1.87e7 | 1.72e7 |
| CG8399 | DRSC07163 | 3.31e7 | 3.35e7 | – | 1.56e7 | 1.68e7 |
| Vps24 | DRSC12332 | 3.25e7 | 8.83e7 | – | 1.50e7 | 2.92e7 |
| Csas | DRSC22390 | 2.58e7 | 2.49e7 | – | 1.32e7 | 1.02e7 |
| Bx | DRSC19350 | 3.69e7 | 2.59e7 | – | 2.07e7 | 1.43e7 |
| Bx | DRSC19624 | 3.73e7 | 3.16e7 | – | 1.80e7 | 1.50e7 |
| Bx | DRSC23048 | 2.64e7 | 2.72e7 | – | 1.21e7 | 1.29e7 |
| CG42337 | DRSC11686 | 3.27e7 | 4.77e7 | – | 1.54e7 | 2.11e7 |
| CG42337 | DRSC11687 | 3.17e7 | 4.73e7 | – | 1.93e7 | 2.28e7 |
| CG42337 | DRSC23099 | 4.32e7 | 3.58e7 | – | 1.68e7 | 1.40e7 |
| RhoGAPp190 | DRSC20097 | 3.16e7 | 3.10e7 | – | 1.62e7 | 1.28e7 |
| RhoGAPp190 | DRSC20099 | 3.22e7 | 3.63e7 | – | 1.49e7 | 1.70e7 |
| CG33160 | DRSC08197 | 2.64e7 | 3.33e7 | – | 1.34e7 | 1.58e7 |
| Socs16D | DRSC20087 | 2.92e7 | 3.79e7 | – | 1.55e7 | 1.69e7 |
| Socs16D | DRSC23165 | 3.62e7 | 3.35e7 | – | 1.92e7 | 1.29e7 |
| asRNA:CR30267 + CG42260 | DRSC03953 | 3.96e7 | 6.86e7 | – | 1.86e7 | 3.05e7 |
| PLCXD | DRSC02427 | 3.66e7 | 6.32e7 | – | 1.73e7 | 2.83e7 |
| Spn77Bb + Spn77Bc | DRSC10689 | 2.21e7 | 4.04e7 | – | 1.17e7 | 1.66e7 |
| Spn77Bb + Spn77Bc | DRSC11793 | 2.21e7 | 3.64e7 | – | 1.06e7 | 1.48e7 |
| C1GalTA | DRSC03246 | 5.29e7 | – | – | 2.40e7 | – |
| Nurf-38 | DRSC04629 | 4.72e7 | 4.33e7 | – | 2.61e7 | 2.49e7 |
| Targ3 | DRSC11471 | 3.16e7 | 3.23e7 | – | 1.38e7 | 1.35e7 |
| CG30056 | DRSC21752 | 3.17e7 | 4.19e7 | – | 1.69e7 | 1.96e7 |
| CHOp24 | DRSC18310 | 3.43e7 | 3.10e7 | – | 1.74e7 | 1.71e7 |
| Ir7f | DRSC18012 | 2.82e7 | 4.00e7 | – | 1.48e7 | 1.73e7 |
| CG5727 | DRSC02882 | 5.18e7 | – | – | 2.60e7 | – |
| CG4480 | DRSC02750 | 3.63e7 | 2.26e7 | – | 1.61e7 | 1.04e7 |
| Sfxn2 | DRSC10718 | 2.29e7 | 3.87e7 | – | 1.19e7 | 1.70e7 |
| Buffy | DRSC05957 | 2.98e7 | 3.85e7 | – | 1.64e7 | 1.73e7 |
| CG14442 | DRSC17935 | 3.67e7 | 4.46e7 | – | 1.89e7 | 1.99e7 |
| Fbl6 | DRSC06335 | 1.94e7 | 2.64e7 | – | 1.02e7 | 1.34e7 |
| ttm3 | DRSC03736 | 2.99e7 | 4.19e7 | – | 1.41e7 | 1.81e7 |
| CG30369 | DRSC21996 | 2.77e7 | 4.94e7 | – | 1.46e7 | 2.24e7 |
| CG8475 | DRSC03091 | 4.31e7 | – | – | 2.51e7 | – |
| CG7655 | DRSC16275 | 5.09e7 | 3.90e7 | – | 2.48e7 | 1.72e7 |
| CG6567 + CG42394 | DRSC22241 | 3.31e7 | 5.29e7 | – | 1.61e7 | 2.75e7 |
| CG7763 | DRSC07043 | 3.09e7 | 3.51e7 | – | 1.51e7 | 1.71e7 |
| CG13564 | DRSC04201 | 3.06e7 | 4.05e7 | – | 1.63e7 | 1.83e7 |
| Frmd5 | DRSC02802 | 4.20e7 | 6.72e7 | – | 1.97e7 | 2.70e7 |
| Vha36-3 | DRSC18615 | 2.95e7 | 4.93e7 | 1.7 | 1.75e7 | 2.07e7 |
| CG3793 | DRSC01982 | 5.07e7 | – | – | 2.62e7 | – |
| asRNA:CR31084 | DRSC21649 | 3.83e7 | 3.67e7 | – | 1.90e7 | 1.60e7 |
| Ravus | DRSC15126 | 2.47e7 | 4.15e7 | – | 1.25e7 | 5.95e7 |

12 of these entries in another layout.
{"predicted target":"RhoGAPp190","DRSC id":"DRSC20099","calcium entry signal, replicate 1 (fluorescence units)":3.22e7,"calcium entry signal, replicate 2 (fluorescence units)":3.63e7,"resting calcium signal, replicate 1 (fluorescence units)":1.49e7,"resting calcium signal, replicate 2 (fluorescence units)":1.70e7}
{"predicted target":"CG33160","DRSC id":"DRSC08197","calcium entry signal, replicate 1 (fluorescence units)":2.64e7,"calcium entry signal, replicate 2 (fluorescence units)":3.33e7,"resting calcium signal, replicate 1 (fluorescence units)":1.34e7,"resting calcium signal, replicate 2 (fluorescence units)":1.58e7}
{"predicted target":"Socs16D","DRSC id":"DRSC20087","calcium entry signal, replicate 1 (fluorescence units)":2.92e7,"calcium entry signal, replicate 2 (fluorescence units)":3.79e7,"resting calcium signal, replicate 1 (fluorescence units)":1.55e7,"resting calcium signal, replicate 2 (fluorescence units)":1.69e7}
{"predicted target":"Socs16D","DRSC id":"DRSC23165","calcium entry signal, replicate 1 (fluorescence units)":3.62e7,"calcium entry signal, replicate 2 (fluorescence units)":3.35e7,"resting calcium signal, replicate 1 (fluorescence units)":1.92e7,"resting calcium signal, replicate 2 (fluorescence units)":1.29e7}
{"predicted target":"asRNA:CR30267 + CG42260","DRSC id":"DRSC03953","calcium entry signal, replicate 1 (fluorescence units)":3.96e7,"calcium entry signal, replicate 2 (fluorescence units)":6.86e7,"resting calcium signal, replicate 1 (fluorescence units)":1.86e7,"resting calcium signal, replicate 2 (fluorescence units)":3.05e7}
{"predicted target":"PLCXD","DRSC id":"DRSC02427","calcium entry signal, replicate 1 (fluorescence units)":3.66e7,"calcium entry signal, replicate 2 (fluorescence units)":6.32e7,"resting calcium signal, replicate 1 (fluorescence units)":1.73e7,"resting calcium signal, replicate 2 (fluorescence units)":2.83e7}
{"predicted target":"Spn77Bb + Spn77Bc","DRSC id":"DRSC10689","calcium entry signal, replicate 1 (fluorescence units)":2.21e7,"calcium entry signal, replicate 2 (fluorescence units)":4.04e7,"resting calcium signal, replicate 1 (fluorescence units)":1.17e7,"resting calcium signal, replicate 2 (fluorescence units)":1.66e7}
{"predicted target":"Spn77Bb + Spn77Bc","DRSC id":"DRSC11793","calcium entry signal, replicate 1 (fluorescence units)":2.21e7,"calcium entry signal, replicate 2 (fluorescence units)":3.64e7,"resting calcium signal, replicate 1 (fluorescence units)":1.06e7,"resting calcium signal, replicate 2 (fluorescence units)":1.48e7}
{"predicted target":"C1GalTA","DRSC id":"DRSC03246","calcium entry signal, replicate 1 (fluorescence units)":5.29e7,"resting calcium signal, replicate 1 (fluorescence units)":2.40e7}
{"predicted target":"Nurf-38","DRSC id":"DRSC04629","calcium entry signal, replicate 1 (fluorescence units)":4.72e7,"calcium entry signal, replicate 2 (fluorescence units)":4.33e7,"resting calcium signal, replicate 1 (fluorescence units)":2.61e7,"resting calcium signal, replicate 2 (fluorescence units)":2.49e7}
{"predicted target":"Targ3","DRSC id":"DRSC11471","calcium entry signal, replicate 1 (fluorescence units)":3.16e7,"calcium entry signal, replicate 2 (fluorescence units)":3.23e7,"resting calcium signal, replicate 1 (fluorescence units)":1.38e7,"resting calcium signal, replicate 2 (fluorescence units)":1.35e7}
{"predicted target":"CG30056","DRSC id":"DRSC21752","calcium entry signal, replicate 1 (fluorescence units)":3.17e7,"calcium entry signal, replicate 2 (fluorescence units)":4.19e7,"resting calcium signal, replicate 1 (fluorescence units)":1.69e7,"resting calcium signal, replicate 2 (fluorescence units)":1.96e7}
